Measured values taken from PMC2845649.
These are yes or no findings as the source states them, for the method shown. In cells and extracts the contact can be indirect. Some entries that bind do so weakly or less than the wild type.

Protein sequences, listed by entry. Tags and fused reporters are not part of them. Lines headed by an entry give the natural chain unless they say otherwise; changes in a name come on top.
UniProt P31749: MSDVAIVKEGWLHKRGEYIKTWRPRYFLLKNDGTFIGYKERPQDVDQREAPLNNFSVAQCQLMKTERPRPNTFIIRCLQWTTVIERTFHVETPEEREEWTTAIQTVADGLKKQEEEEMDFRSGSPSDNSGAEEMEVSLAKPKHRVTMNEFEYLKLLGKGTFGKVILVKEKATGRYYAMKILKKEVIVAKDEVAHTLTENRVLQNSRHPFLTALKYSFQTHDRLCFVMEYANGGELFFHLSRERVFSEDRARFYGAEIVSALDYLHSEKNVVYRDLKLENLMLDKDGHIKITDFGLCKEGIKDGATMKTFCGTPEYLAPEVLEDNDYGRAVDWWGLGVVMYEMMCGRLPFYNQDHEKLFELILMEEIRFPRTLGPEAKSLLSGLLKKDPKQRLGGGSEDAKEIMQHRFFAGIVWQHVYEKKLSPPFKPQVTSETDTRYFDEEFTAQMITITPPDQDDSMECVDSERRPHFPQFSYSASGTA
UniProt O43707: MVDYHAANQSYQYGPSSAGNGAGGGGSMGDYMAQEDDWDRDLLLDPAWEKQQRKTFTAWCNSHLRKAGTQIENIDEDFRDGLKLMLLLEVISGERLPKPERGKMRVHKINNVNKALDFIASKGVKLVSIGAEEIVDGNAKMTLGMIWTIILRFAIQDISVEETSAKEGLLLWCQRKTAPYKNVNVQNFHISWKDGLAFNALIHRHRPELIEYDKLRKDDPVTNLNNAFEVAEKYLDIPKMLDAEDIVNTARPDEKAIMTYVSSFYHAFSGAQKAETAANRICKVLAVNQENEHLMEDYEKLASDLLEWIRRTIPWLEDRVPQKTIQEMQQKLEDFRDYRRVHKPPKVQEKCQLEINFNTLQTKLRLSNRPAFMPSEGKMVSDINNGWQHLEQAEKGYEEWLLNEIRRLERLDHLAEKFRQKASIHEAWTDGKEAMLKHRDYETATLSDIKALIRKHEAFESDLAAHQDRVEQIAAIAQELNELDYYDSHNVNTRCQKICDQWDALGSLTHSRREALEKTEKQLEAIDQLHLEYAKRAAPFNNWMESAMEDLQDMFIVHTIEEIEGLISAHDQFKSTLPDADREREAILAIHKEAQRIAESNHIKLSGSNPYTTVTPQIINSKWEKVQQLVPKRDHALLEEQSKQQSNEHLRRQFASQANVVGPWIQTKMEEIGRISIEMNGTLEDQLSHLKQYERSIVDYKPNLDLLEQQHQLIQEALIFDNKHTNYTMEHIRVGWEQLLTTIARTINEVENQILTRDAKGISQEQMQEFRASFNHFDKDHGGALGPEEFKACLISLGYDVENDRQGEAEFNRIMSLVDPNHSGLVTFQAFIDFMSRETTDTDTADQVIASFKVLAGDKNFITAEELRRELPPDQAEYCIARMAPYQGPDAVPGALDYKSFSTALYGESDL

Biological target: IFPN-AKT1 (UniProt P31749)
Assay: split reporter; protein-fragment complementation of IFP fragments, fluorescence of co-expressing cells; cell line and conditions not told, no figure, sentence ends with ref. 12

Substance	binding
IFPC-ACTN4 (from UniProt O43707 1-911)	binds
IFPC-ACTN4Δ310-911 (from UniProt O43707 1-309) (domain or fragment)	no binding
